Results as given in PMC7352286, “The Heterooligomerization of Human Small Heat Shock Proteins Is Controlled by Conserved Motif Located in the N-Terminal Domain” (International Journal of Molecular Sciences, 2020).
Substitutions are numbered along the chain they refer to. Results are given in words; binding and its absence hold for the method and conditions named.

By UniProt entry, the sequences of proteins in these tests, tags left out.
UniProt P04792: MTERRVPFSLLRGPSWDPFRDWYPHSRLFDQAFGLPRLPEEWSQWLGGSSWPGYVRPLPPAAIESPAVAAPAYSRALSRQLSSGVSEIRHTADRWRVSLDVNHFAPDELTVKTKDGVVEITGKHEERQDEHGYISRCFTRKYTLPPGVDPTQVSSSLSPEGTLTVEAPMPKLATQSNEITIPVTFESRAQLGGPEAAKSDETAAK

Assays:
[1] = target: T1, HspB8 R29A (human) (UniProt Q9UJY1); assay: SEC; equimolar mixture (30–40 µM each), reduced, preincubated 1 h at 42 °C in buffer B (20 mM Tris-acetate, 150 mM NaCl, 0.1 mM EDTA, 15 mM mercaptoethanol); Superdex 200 HR 10/30; fractions on SDS gels; correlation coefficient and molar ratio from band intensities; both purified
T1 sequence: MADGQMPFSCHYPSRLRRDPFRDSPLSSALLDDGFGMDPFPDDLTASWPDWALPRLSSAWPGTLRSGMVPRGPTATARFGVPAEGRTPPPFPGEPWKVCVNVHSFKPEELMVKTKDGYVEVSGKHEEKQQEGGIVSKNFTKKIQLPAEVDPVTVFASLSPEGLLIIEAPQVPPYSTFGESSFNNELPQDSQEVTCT

[2] = target: T2, HspB8 Δ28–32 (human) (UniProt Q9UJY1); assay: as above
T2 sequence: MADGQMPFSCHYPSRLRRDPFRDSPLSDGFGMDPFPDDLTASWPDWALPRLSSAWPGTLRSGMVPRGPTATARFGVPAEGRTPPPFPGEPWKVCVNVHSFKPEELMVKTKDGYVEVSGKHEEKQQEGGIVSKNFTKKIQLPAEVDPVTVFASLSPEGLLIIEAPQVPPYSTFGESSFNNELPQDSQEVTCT

[3] = target: T1, HspB8 R29A (human); assay: SEC; equimolar mixture (30–40 µM each), reduced, preincubated 1 h at 4 °C in buffer B (20 mM Tris-acetate, 150 mM NaCl, 0.1 mM EDTA, 15 mM mercaptoethanol); Superdex 200 HR 10/30; fractions on SDS gels; correlation coefficient and molar ratio from band intensities; both purified
[4] = target: T2, HspB8 Δ28–32 (human); assay: as above
[5] = target: T3, wild-type human small heat shock protein HspB6 (human) (UniProt O14558); assay: condition: only preincubated at 4 °C (without heating); 30–40 µM each; SEC; equimolar mixture (30–40 µM each), reduced, preincubated 1 h at 4 °C in buffer B (20 mM Tris-acetate, 150 mM NaCl, 0.1 mM EDTA, 15 mM mercaptoethanol); Superdex 200 HR 10/30; fractions on SDS gels; correlation coefficient and molar ratio from band intensities; both purified
T3 sequence: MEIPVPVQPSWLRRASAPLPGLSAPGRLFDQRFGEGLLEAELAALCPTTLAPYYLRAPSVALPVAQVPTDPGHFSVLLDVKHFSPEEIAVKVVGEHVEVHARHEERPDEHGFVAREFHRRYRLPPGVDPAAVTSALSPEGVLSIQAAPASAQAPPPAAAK

[6] = target: T4, HspB6 R27A (human, UniProt O14558 1-160, R27A); assay: as above
T4 construct: also called R/A HspB6; R/A mutant of HspB6; source: E. coli BL21(DE3) pLysS, purified (ammonium sulfate, HiTrap Phenyl-Sepharose, Superdex 200)
T4 sequence (looked up): T3 sequence with R27A

[7] = target: T5, HspB6 Δ26–30 (human, UniProt O14558 1-160, Δ26–30); assay: as above
T5 construct: also called Δ HspB6; Δ mutant of HspB6; source: E. coli BL21(DE3) pLysS, purified (ammonium sulfate, HiTrap Phenyl-Sepharose, Superdex 200)
T5 sequence (looked up): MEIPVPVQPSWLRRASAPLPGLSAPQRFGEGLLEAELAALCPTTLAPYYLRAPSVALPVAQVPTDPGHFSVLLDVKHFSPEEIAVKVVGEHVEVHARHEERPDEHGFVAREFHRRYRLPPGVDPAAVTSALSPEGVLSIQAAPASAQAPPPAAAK

[8] = target: T6, wild-type human small heat shock protein HspB5 (human) (UniProt P02511); assay: condition: only preincubated at 4 °C (without heating); 30–40 µM each; ion-exchange chromatography; equimolar mixture (30–40 µM each), reduced, preincubated 1 h at 4 °C in buffer D (20 mM phosphate pH 6.8, 0.1 mM PMSF, 15 mM mercaptoethanol); DEAE HiTrap, gradient 0–500 mM NaCl; fractions on SDS gels; correlation coefficient and molar ratio from band intensities; both purified
T6 sequence: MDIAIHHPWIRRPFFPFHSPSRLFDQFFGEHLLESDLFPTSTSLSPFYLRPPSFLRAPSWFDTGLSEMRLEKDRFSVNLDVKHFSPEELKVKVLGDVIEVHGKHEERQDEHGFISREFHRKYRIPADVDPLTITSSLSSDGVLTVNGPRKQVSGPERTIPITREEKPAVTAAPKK

[9] = target: T7, HspB5 R22A (human) (UniProt P02511); assay: as above
T7 sequence: T6 sequence with R22A

[10] = target: T8, HspB5 Δ21–25 (human) (UniProt P02511); assay: as above
T8 sequence: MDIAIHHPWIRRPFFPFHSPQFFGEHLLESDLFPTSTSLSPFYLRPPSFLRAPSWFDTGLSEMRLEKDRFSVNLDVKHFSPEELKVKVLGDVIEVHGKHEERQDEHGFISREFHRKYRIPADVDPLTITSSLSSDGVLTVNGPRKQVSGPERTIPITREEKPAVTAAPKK

binding [1]: no binding (tested: 30–40 µM each)
binding [2]: no binding (tested: 30–40 µM each)
binding [3]: no binding (tested: 30–40 µM each)
binding [4]: no binding (tested: 30–40 µM each)
binding [5]: no binding
binding [6]: no binding
binding [7]: no binding
binding [8]: no binding
binding [9]: no binding
binding [10]: no binding
Substance: wild-type human small heat shock protein HspB1 (from UniProt P04792 1-205)
